# Primary screen of a compound library

Sequences of proteins named here, by UniProt entry; tags and fusion partners are left off.
UniProt I6X8D2, whole entry: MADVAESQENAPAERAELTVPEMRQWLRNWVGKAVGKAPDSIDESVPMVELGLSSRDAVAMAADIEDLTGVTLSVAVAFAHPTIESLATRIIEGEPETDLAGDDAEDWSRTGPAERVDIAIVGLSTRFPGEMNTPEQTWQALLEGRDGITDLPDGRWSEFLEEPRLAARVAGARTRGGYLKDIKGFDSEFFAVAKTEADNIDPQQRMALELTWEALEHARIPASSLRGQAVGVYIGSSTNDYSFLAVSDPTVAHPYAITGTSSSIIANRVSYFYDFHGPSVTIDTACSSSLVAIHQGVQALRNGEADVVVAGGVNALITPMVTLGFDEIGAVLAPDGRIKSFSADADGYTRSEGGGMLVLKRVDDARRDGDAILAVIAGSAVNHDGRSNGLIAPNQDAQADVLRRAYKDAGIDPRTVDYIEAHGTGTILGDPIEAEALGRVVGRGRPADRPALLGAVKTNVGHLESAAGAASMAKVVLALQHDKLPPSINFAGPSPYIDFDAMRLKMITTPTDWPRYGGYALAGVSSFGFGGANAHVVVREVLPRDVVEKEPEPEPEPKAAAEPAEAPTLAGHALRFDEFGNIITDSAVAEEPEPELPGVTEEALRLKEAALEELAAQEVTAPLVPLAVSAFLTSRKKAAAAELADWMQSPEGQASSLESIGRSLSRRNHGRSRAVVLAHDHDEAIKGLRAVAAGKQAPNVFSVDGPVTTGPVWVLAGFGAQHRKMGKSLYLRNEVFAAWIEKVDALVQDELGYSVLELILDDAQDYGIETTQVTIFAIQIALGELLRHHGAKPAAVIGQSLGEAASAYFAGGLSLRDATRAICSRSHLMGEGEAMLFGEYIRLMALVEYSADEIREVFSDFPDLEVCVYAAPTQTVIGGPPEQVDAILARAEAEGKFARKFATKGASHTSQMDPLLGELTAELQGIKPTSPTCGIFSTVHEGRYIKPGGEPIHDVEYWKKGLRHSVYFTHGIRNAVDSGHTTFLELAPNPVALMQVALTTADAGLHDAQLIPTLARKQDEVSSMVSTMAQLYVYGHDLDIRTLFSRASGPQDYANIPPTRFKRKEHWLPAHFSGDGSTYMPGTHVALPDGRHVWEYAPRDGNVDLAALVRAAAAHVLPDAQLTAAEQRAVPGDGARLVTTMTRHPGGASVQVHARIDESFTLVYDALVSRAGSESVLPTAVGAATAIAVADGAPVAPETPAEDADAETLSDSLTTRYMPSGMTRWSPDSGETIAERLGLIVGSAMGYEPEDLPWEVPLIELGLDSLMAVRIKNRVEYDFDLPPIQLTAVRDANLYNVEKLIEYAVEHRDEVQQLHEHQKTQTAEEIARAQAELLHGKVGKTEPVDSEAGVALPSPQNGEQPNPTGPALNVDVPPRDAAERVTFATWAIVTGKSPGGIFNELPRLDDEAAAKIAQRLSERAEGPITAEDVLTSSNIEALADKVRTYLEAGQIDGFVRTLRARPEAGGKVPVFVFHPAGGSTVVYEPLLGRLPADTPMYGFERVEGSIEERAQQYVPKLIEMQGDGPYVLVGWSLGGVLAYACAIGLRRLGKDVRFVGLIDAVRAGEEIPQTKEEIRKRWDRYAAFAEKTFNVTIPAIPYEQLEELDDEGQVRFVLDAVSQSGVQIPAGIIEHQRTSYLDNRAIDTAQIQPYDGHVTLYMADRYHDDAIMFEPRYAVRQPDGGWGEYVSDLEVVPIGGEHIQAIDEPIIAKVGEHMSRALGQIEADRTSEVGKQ
UniProt P9WPC5, whole entry: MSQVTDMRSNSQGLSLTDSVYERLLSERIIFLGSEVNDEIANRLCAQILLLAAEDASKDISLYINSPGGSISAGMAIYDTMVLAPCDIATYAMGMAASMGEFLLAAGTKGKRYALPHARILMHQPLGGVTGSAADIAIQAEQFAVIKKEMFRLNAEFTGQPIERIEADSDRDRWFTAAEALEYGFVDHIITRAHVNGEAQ
UniProt P9WPC3, whole entry partner: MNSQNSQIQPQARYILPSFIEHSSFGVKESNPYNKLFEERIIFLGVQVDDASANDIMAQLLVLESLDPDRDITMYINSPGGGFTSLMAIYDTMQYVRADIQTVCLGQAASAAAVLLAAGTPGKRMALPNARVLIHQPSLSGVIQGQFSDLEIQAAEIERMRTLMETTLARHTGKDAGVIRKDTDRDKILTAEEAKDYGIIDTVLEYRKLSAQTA

From ChEMBL document CHEMBL3988442, “University of Dundee, Small-Polar-MMV Screening Library” (2021).

Leishmania in macrophages: 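Cell assay of Leishmania donovani living inside macrophages; the read-out is not stated. Compounds at 30 µM. The record gives no direction; compounds that gave an IC50 in retests scored well above the rest, so higher reads as stronger inhibition. About 69,000 compounds were tested under these conditions; 1.5% (about 1,000) showed 50% or more at least once.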
Pks13 thioesterase: 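Polyketide synthase Pks13, Mycobacterium tuberculosis (UniProt I6X8D2). Enzyme assay of the thioesterase domain of polyketide synthase 13; the read-out is not stated. Concentration: 30 µM. The record gives no direction; the compounds picked for IC50 retests had high values, so higher reads as stronger inhibition. Size under these conditions: about 67,000 compounds, about 300 of them at 50% or above in at least one test.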
ClpP1P2: 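Protease assay of ClpP1P2, read by the AMC dye that it sets free. Target: ClpP1P2, Mycobacterium tuberculosis (UniProt P9WPC5 and UniProt P9WPC3). Tested at 50 µM. Direction is inferred from only a few compounds that gave an IC50; most scored high, so higher reads as stronger inhibition. Most other retested compounds had strongly negative values. About 69,000 compounds were tested under these conditions; 0.015% (about 10) showed 50% or more at least once.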
T. brucei: 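Whole-parasite assay of Trypanosoma brucei over 72 hours; the read-out is not stated. Tested at 30 µM. Direction is inferred from retests: higher values go with stronger inhibition. Values scatter widely below zero; nearly all retest evidence comes from the higher of the two concentrations used. Of about 64,000 compounds tested this way, about 940 (1.5%) reached 50% or more in at least one test.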

Each number is a percent effect as filed.
The record does not define 0% and 100%; most values in the screen are far below 50% and negative numbers occur (in some assays of this library far below -100).
Compounds were drawn at random from those tested, without regard to their results.
Two or more numbers in one place are separate tests of the same structure; such repeats can differ widely.

With Cc1cc(CNC(=O)CN2CCCC(Cn3cncn3)C2)ccc1F (stereo not drawn) the screen gave Leishmania in macrophages: 22.01%; Pks13 thioesterase: -8.333%; ClpP1P2: -20.17%; T. brucei: 9.815%. With COCCNc1ncc(-c2cccc(OC)c2)c(-c2nccn2C)n1 the screen gave Leishmania in macrophages: -3.628%; Pks13 thioesterase: 3.867%; ClpP1P2: -62.04%; T. brucei: -19.91%. O=S(=O)(Cc1ccccc1Cl)NCCCN1CCCC1 gave Leishmania in macrophages: -7.546%; Pks13 thioesterase: -27.16%; ClpP1P2: -0.7018%; T. brucei: 3.205%. For CN1C(=O)C(c2cccnc2)CC12CCN(C(=O)c1cccn1C)CC2 (stereo not drawn) the result was Leishmania in macrophages: 12.81%; Pks13 thioesterase: -13.04%; ClpP1P2: -4.723%; T. brucei: -31.11%.

Result for [H][C@]12CC[C@]([H])(CN(C(=O)CCc3cnn(C)c3)C1)N(Cc1ccccn1)C2 was Leishmania in macrophages: 19.45%; T. brucei: 7.516%. With CCOC(=O)CNC(=O)c1cc2n(n1)CCCO2 the screen gave Leishmania in macrophages: 10.49%; Pks13 thioesterase: -19.2%; ClpP1P2: -10.88%; T. brucei: 8.051%. Cc1c(F)cc(C(=O)O)cc1S(=O)(=O)Nc1ccc(C#N)cc1 read Leishmania in macrophages: -20.18%; Pks13 thioesterase: -10.62%; ClpP1P2: -0.8345%; T. brucei: 2.528%. CN(C)S(=O)(=O)c1csc(C(=O)N2CCC(C(N)=O)CC2)c1 read Leishmania in macrophages: 12.14%; Pks13 thioesterase: -20.42%; ClpP1P2: -0.9329%; T. brucei: -0.1616%.

Result for Cc1ccc(OC2(C(=O)O)CCN(C/C=C/c3ccco3)CC2)cc1 was Leishmania in macrophages: -41.82%; Pks13 thioesterase: -33.87%; ClpP1P2: 0.4335%; T. brucei: -6.635%. Result for O=C(CN1CCc2sccc2C1)Nc1ccnc2ccnn12 was Leishmania in macrophages: 21.16%; Pks13 thioesterase: 23.64%; ClpP1P2: -2.776%; T. brucei: 19.8%. Result for Cn1ncc2c1CCCC2NCc1cc(Br)cs1 (stereo not drawn) was Pks13 thioesterase: -17.65%; ClpP1P2: 13.66%. Cc1ccc(N2CC[C@H]3O[C@H](C(=O)N4CCCCO4)CC[C@H]32)nn1 gave Pks13 thioesterase: 0.4561%; ClpP1P2: 12.01%.

With C[C@]1(O)CN(CCC(N)=O)CC[C@@H]1Oc1cccc(F)c1 the screen gave Leishmania in macrophages: 15.11% & -8.279%; Pks13 thioesterase: 3.745%; ClpP1P2: -8.601%; T. brucei: 20.47%. Result for Cc1ccc2cc(CN(C)Cc3ccccn3)c(=O)[nH]c2c1 was Leishmania in macrophages: -13.8%; Pks13 thioesterase: -11.58%; ClpP1P2: -75.3%. CC(C)(C)N1CC(C(=O)NCc2noc(Cc3ccccc3)n2)CC1=O (stereo not drawn) read Leishmania in macrophages: 8.696%; Pks13 thioesterase: -29.75%; ClpP1P2: -4.706%; T. brucei: -10.31%. CCCc1noc(CCC(=O)N2CCCC2c2cccc(OC)c2)n1 (stereo not drawn) read Leishmania in macrophages: 32.56%; Pks13 thioesterase: 1.087%; ClpP1P2: -8.893%.

2 of the entries, repeated:

- CN(C)S(=O)(=O)c1csc(C(=O)N2CCC(C(N)=O)CC2)c1 : Leishmania in macrophages: 12.14%; Pks13 thioesterase: -20.42%; ClpP1P2: -0.9329%; T. brucei: -0.1616%
- O=S(=O)(Cc1ccccc1Cl)NCCCN1CCCC1 : Leishmania in macrophages: -7.546%; Pks13 thioesterase: -27.16%; ClpP1P2: -0.7018%; T. brucei: 3.205%